Laboratory results: the supplement of paper PMC6078165
± gives the standard deviation of the averaged measurements. The reference is the same well before dosing, and untreated signal decays as well.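 The cancer cells are triple-negative breast cancer lines of basal-like or mesenchymal-like type, grown without fibroblasts. A drop in red signal reflects loss of mitochondrial integrity, a stand-in for apoptotic death.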

How the values were obtained:
MDAMB436 = experiment: relative JC-1 red fluorescence (viability) vs pre-drug, monoculture (fraction); higher = more viable cancer cells; conditions: coculture fibroblast: none (monoculture)
Method: (§1)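 JC-1 labelled TNBC cells grown in monoculture (density kept equal with unlabelled cancer cells) in 384-well plates in FluoroBrite medium, treated with one of 42 anticancer drugs at 0.1, 1, 10 or 100 uM. JC-1 red fluorescence (mitochondrial integrity, surrogate of apoptotic death) was read by plate reader every 8 h for 72 h. Values are normalised to each well's pre-drug value, with background from alamethicin. The stock of one drug was tenfold lower, so its dose labels may be too high. Monoculture values are repeated alongside each fibroblast plate and are averaged here.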

MDAMB231 = experiment: as above; conditions: coculture fibroblast: none (monoculture)
Method: as §1

O=C(O)CCCc1ccc(N(CCCl)CCCl)cc1 [Chlorambucil]
relative JC-1 red fluorescence
Conditions	8 h	16 h	24 h	32 h	40 h	48 h	56 h	64 h	72 h
MDAMB231, 0.1 µM	0.761 ± 0.023	0.707 ± 0.039	0.906 ± 0.089	0.755 ± 0.084	0.751 ± 0.097	0.803 ± 0.12	0.801 ± 0.11	0.87 ± 0.12	0.805 ± 0.052
MDAMB231, 1 µM	0.7287 ± 0.0025	0.709 ± 0.022	0.59179 ± 0.0004	0.579 ± 0.022	0.526 ± 0.017	0.506 ± 0.013	0.479 ± 0.0053	0.4743 ± 0.00086	0.477 ± 0.0081
MDAMB231, 10 µM	0.765 ± 0.044	0.7002 ± 0.0061	0.771 ± 0.084	0.689 ± 0.045	0.656 ± 0.051	0.666 ± 0.073	0.647 ± 0.086	0.69 ± 0.11	0.691 ± 0.12
MDAMB231, 100 µM	0.728 ± 0.011	0.685 ± 0.018	0.577 ± 0.013	0.568 ± 0.016	0.495 ± 0.016	0.476 ± 0.018	0.434 ± 0.021	0.442 ± 0.027	0.425 ± 0.027
MDAMB436, 0.1 µM	0.8458 ± 0.0037	0.871 ± 0.016	0.855 ± 0.1	0.932 ± 0.039	0.95 ± 0.051	0.823 ± 0.027	0.71796 ± 0.00049	0.817 ± 0.078	0.864 ± 0.029
MDAMB436, 1 µM	0.854 ± 0.0087	0.7592 ± 0.0025	0.715 ± 0.016	0.654 ± 0.023	0.643 ± 0.029	0.632 ± 0.028	0.62 ± 0.039	0.615 ± 0.046	0.626 ± 0.05
MDAMB436, 10 µM	0.898 ± 0.015	0.805 ± 0.014	0.834 ± 0.021	0.803 ± 0.032	0.804 ± 0.033	0.812 ± 0.03	0.822 ± 0.041	0.836 ± 0.036	0.855 ± 0.034
MDAMB436, 100 µM	0.8492 ± 0.0081	0.754 ± 0.021	0.718 ± 0.033	0.66 ± 0.035	0.634 ± 0.041	0.614 ± 0.046	0.59 ± 0.049	0.573 ± 0.057	0.552 ± 0.05

CN(Cc1cnc2nc(N)nc(N)c2n1)c1ccc(C(=O)N[C@@H](CCC(=O)O)C(=O)O)cc1 [Methotrexate]
relative JC-1 red fluorescence
Conditions	8 h	16 h	24 h	32 h	40 h	48 h	56 h	64 h	72 h
MDAMB231, 0.1 µM	0.7636 ± 0.0024	0.757 ± 0.034	0.6943 ± 0.0037	0.68 ± 0.048	0.626 ± 0.051	0.632 ± 0.049	0.592 ± 0.048	0.615 ± 0.06	0.6 ± 0.053
MDAMB231, 1 µM	0.74483 ± 0.00023	0.707 ± 0.0055	0.647 ± 0.016	0.567 ± 0.017	0.53 ± 0.012	0.522 ± 0.024	0.495 ± 0.017	0.511 ± 0.027	0.511 ± 0.026
MDAMB231, 10 µM	0.814 ± 0.029	0.742 ± 0.0019	0.789 ± 0.056	0.702 ± 0.03	0.659 ± 0.03	0.638 ± 0.03	0.61 ± 0.035	0.646 ± 0.046	0.63 ± 0.038
MDAMB231, 100 µM	0.725 ± 0.022	0.671 ± 0.012	0.648 ± 0.076	0.593 ± 0.026	0.548 ± 0.037	0.54 ± 0.051	0.505 ± 0.058	0.519 ± 0.067	0.51 ± 0.072
MDAMB436, 0.1 µM	0.8689 ± 0.0011	0.829 ± 0.046	0.817 ± 0.034	0.783 ± 0.047	0.79 ± 0.053	0.807 ± 0.059	0.818 ± 0.053	0.839 ± 0.05	0.848 ± 0.042
MDAMB436, 1 µM	0.86 ± 0.025	0.7475 ± 0.0053	0.786 ± 0.014	0.747 ± 0.02	0.74 ± 0.037	0.743 ± 0.035	0.74 ± 0.038	0.747 ± 0.046	0.762 ± 0.046
MDAMB436, 10 µM	0.912 ± 0.011	0.9169 ± 0.0019	0.941 ± 0.057	0.928 ± 0.068	0.817 ± 0.057	0.794 ± 0.096	0.826 ± 0.073	0.845 ± 0.069	0.837 ± 0.098
MDAMB436, 100 µM	0.855 ± 0.02	0.7158 ± 0.0037	0.7312 ± 0.00092	0.6759 ± 0.0053	0.656 ± 0.016	0.649 ± 0.013	0.634 ± 0.014	0.627 ± 0.013	0.628 ± 0.011
